Paper PMC4299064
These are yes or no findings as the source states them, for the method shown.

By UniProt entry, the sequences of proteins in these tests, tags left out. Residues count along the entry.
UniProt P02701, residues 25-152: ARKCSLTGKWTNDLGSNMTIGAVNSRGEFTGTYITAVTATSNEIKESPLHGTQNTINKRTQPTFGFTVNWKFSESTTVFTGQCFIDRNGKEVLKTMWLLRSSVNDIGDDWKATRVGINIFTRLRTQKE

Target: T1, LHPQF conjugated BSA
T1 sequence (peptide): LHPQF
Experiment: oblique-incidence reflectivity difference (OI-RD); line-shaped microarray printed at 0.5 mg/mL in 1x PBS on epoxy-coated glass, washed, blocked with 0.5 mg/mL BSA for 10 min; 83 nM streptavidin or avidin added in 1x PBS with stirring; total internal reflection prism and photodiode array; curves compensated by subtracting the substrate signal; both purified

avidin (from UniProt P02701 25-152)
binding: no binding (tested: 83 nM)
